According to article PMC8149808:
These are yes or no findings as the source states them, for the method shown. In cells and extracts the contact can be indirect. Some results given as binding are weak or reduced against the parent protein; the word gives no strength.

Chains of the proteins cited; added tags and fusions are not shown. Lines headed by an entry give the natural chain unless they say otherwise; changes in a name come on top. A line that says so, or that is headed by a name, gives the form on record, which may keep a tag or linker. Residues count along the entry.
UniProt O15260: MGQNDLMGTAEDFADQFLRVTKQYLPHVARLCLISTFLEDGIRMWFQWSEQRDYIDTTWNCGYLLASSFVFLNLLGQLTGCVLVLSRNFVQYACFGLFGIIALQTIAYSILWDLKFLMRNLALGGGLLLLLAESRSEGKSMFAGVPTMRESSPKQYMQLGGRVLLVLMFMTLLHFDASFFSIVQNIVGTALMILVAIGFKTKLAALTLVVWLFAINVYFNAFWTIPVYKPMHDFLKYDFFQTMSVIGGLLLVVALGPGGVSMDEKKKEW
α1-antitrypsin, wild type (α1AT^WT) (P01009, residues 25-418): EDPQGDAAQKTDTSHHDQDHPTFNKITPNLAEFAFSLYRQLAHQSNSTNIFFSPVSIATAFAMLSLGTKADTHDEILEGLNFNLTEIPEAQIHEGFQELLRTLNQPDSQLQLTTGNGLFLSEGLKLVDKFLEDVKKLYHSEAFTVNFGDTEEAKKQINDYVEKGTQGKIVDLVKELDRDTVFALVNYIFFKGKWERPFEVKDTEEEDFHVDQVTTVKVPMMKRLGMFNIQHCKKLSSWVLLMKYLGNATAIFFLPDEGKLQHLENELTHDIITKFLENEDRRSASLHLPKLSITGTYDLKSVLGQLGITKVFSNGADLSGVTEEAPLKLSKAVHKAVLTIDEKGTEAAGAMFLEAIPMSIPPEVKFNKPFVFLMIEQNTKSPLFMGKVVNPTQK
α1-antitrypsin King's variant (α1AT^H334D) (P01009, form named): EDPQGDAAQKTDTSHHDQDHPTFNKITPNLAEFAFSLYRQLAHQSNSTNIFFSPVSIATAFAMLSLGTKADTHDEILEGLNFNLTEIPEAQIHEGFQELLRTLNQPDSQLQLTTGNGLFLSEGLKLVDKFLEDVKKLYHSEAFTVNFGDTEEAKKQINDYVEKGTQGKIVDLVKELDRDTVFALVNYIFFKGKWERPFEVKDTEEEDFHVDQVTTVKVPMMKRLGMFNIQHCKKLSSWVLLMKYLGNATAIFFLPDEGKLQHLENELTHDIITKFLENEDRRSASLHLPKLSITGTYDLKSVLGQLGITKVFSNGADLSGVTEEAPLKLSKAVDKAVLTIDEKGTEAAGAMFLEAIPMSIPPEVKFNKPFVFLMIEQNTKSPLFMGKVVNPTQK

Key:
[1] = biological target: FLAG-tagged SURF4 (surfeit protein locus 4) (UniProt O15260); experiment: cross-linking + co-IP; CHO-K1 Tet-on cells (500 ng/ml doxycycline, 20 hr) cross-linked with 1 mM DSP for 2 hr on ice; Nonidet lysis buffer; anti-FLAG-M2 agarose overnight at 4°C; four RIPA washes; α1AT detected by immunoblot; cells with 7xHis-SURF4 as control
[2] = biological target: 7xHis-tagged SURF4 (surfeit protein locus 4) (UniProt O15260); experiment: cross-linking + pull-down; same DSP-cross-linked CHO-K1 lysates; Ni-NTA agarose under denaturing conditions (8 M urea, 10 mM imidazole) overnight at RT; washes with 8 M urea and 10, 20 or 30 mM imidazole; α1AT detected by immunoblot; cells with FLAG-SURF4 as control

| binding [1] | binding [2] | Substance |
| --- | --- | --- |
| binds | binds | α1-antitrypsin King's variant (α1AT^H334D) (from UniProt P01009 25-418) |
| binds | binds | α1-antitrypsin, wild type (α1AT^WT) (from UniProt P01009 25-418) |
